Values from PubChem BioAssay AID1159584 (Peter MacCallum Cancer Centre, 2016)

Assay: 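Genes that CDH1-null MCF10A cells selectively depend on to survive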 (primary screen)
Cell system: human MCF10A breast epithelial cells, parental and CDH1-null
Reagents: siRNA against human genes
Detection: 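ATP luminescence (CellTiter-Glo) viability per line relative to mean mock wells over all plates, and the ratio of CDH1-null to parental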
Direction: CDH1-null / parental viability ratio: higher = CDH1-null cells survive relatively better than parental
In all, the deposit lists about 18,000 reagents; below is a random part of them. Further read-outs or replicates are left out here. The record does not give: the amount of reagent, the time to read-out.

Depletion of FBXO25 gave: CDH1-null / parental viability ratio 1.14.
Silencing of AEN came out at: CDH1-null / parental viability ratio 0.94.
After knock-down of HSPA8 the results were CDH1-null / parental viability ratio 1.04.
With knock-down of KCTD20, the screen gave CDH1-null / parental viability ratio 1.17.
Against JMJD8 the deposit lists CDH1-null / parental viability ratio 0.86.
For TJP3, the values are CDH1-null / parental viability ratio 1.21.
Against KAT2B, the entry reads CDH1-null / parental viability ratio 1.

Laid out differently: results already given.
JMJD8
- CDH1-null / parental viability ratio: 0.86

TJP3
- CDH1-null / parental viability ratio: 1.21

The results go on:
For CCDC181 the deposit lists CDH1-null / parental viability ratio 1.06.
Silencing of COMMD10 gave: CDH1-null / parental viability ratio 0.81.
After knock-down of ATP6V1B2, the record shows CDH1-null / parental viability ratio 0.89.
For ECI2, the entry reads CDH1-null / parental viability ratio 1.14.
After knock-down of KRTAP1-5, the screen gave CDH1-null / parental viability ratio 0.77.
HMCN2 scored CDH1-null / parental viability ratio 1.
POGLUT2 scored CDH1-null / parental viability ratio 0.92.
